Laboratory results published in PubChem BioAssay AID2551 (National Center for Advancing Translational Sciences (NCATS), 2010).
The campaign covered roughly 310,000 compounds. About 17,000 (5.5%) were called active. The shares of active, inactive and inconclusive entries below differ from those in the screen. The call rests on the fitted dose curve; in most records, active means well fitted inhibition curve with a large enough effect; inconclusive means small, poorly fitted or top-dose-only effect, or effect the other way; inactive means no such curve, though single readings can be large or run the other way. A potency beside an inconclusive call is a rough fit, not a confirmed value.

Sequences of proteins named here, by UniProt entry; tags and fusion partners are left off. A change or cut given only in a name is not applied to a line headed by its entry.
UniProt P51450: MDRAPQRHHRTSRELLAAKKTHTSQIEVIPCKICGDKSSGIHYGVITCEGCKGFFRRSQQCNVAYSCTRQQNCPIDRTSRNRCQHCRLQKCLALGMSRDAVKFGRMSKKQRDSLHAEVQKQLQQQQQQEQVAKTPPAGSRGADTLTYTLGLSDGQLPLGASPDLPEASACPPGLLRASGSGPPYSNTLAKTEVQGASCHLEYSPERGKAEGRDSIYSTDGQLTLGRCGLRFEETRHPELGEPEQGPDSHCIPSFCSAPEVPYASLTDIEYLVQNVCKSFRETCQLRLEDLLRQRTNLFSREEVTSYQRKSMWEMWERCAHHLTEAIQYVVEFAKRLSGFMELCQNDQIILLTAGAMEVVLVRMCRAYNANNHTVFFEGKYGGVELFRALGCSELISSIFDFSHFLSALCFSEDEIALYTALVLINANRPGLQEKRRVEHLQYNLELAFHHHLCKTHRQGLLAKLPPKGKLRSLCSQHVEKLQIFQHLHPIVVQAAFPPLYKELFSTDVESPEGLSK

These compounds were tested against Nuclear receptor ROR-gamma (Mus musculus) (UniProt P51450) (assay: qHTS for inhibitors of ROR gamma transcriptional activity). Details: Drosophila S2 Gal4-RORgamma UAS-luciferase reporter, 20 h; activity change, negative = inhibition: at 53.6 µM (top of the series).
Summary of the method: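 Using a luciferase readout, inhibitors were identified by reduced reporter activity in Drosophila cells coexpressing a copper-inducible Gal4–ROR gamma fusion and UAS-driven Photinus luciferase, incubated 20 hr after 700 uM copper sulfate.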
Further: nearly all actives have a fitted effect of over 60% in size.
On the % scale 0 is the no-effect control and ±100 the full control effect; potency means the concentration at half of the fitted maximal effect.

Potency, active:
CCOC(=O)c1ccc(-c2ccc(CO)o2)cc1 11.2 µM
BrC(=C\c1ccccc1)/C=N/n1cnnc1 7.08 µM
COc1ccc(/C=N\NC(=O)c2ccccc2)cc1COc1ccc(F)cc1 17.8 µM
COCCCNC(=S)NC(=O)c1ccccc1 12.6 µM
O=C(N/N=C/C=C/c1cccc([N+](=O)[O-])c1)c1ccncc1 7.08 µM
Cc1cc(C)c2[nH]c(O)c(N=NC(=S)NCC3CCCO3)c2c1 (stereo not drawn) 5.01 µM
Cc1cccc(NC(=S)N(CCCN2CCOCC2)Cc2cn(C)c3ccccc23)c1 11.2 µM
Cc1cc(C)nc(Nc2nc(-c3ccccc3)cs2)n1 4.47 µM
CC1CCCCN1C(=O)Cn1c(=O)oc2cc(S(=O)(=O)N3CCCC3)ccc21 (stereo not drawn) 2.51 µM
CCOC(=O)Cc1csc(N/N=C\c2cccc(Br)c2)n1 10 µM
Cc1cccc(NC(=S)Nc2ccc(Br)cc2)c1 7.08 µM
CCCN1C(=O)c2ccc(C(=O)Nc3nccs3)cc2C1=O 10 µM
CCOc1cc(/C=N/Nc2nc(N3CCCC3)nc(N3CCCC3)n2)ccc1O 5.62 µM
CCOCCCNC(=S)Nc1cc(OCC)c(NC(=O)c2ccco2)cc1OCC 7.94 µM

Potency, inconclusive:
CCc1cc2c(=O)c(-c3ccc4c(c3)OCCO4)coc2cc1OS(C)(=O)=O 2.51 µM [activator, partial curve]
O=C(N/N=C/C=C/c1ccccc1)C1CC1c1ccccc1 (stereo not drawn) 35.5 µM [inhibitor, single point]
C=C(C)CN=C1SC(C(=O)Nc2sc3c(c2C(=O)OC)CCC3)C(N)=C1C(N)=O (stereo not drawn) 11.2 µM [activator, partial curve, poor fit]
S=C(NCCN1CCOCC1)Nc1cccc2ccccc12 14.1 µM [inhibitor, single point]
O=C(C1=C(O)/C(=C/c2ccc(O)cc2)CCC1)C(F)(F)F 35.5 µM [inhibitor, single point]
COCCNC(=O)CCSc1nc(-c2ccc(OC)cc2)cc(C(F)(F)F)n1 7.08 µM [activator, partial curve]
Cc1ccc(Nc2c(-c3ccc(N4CCOCC4)cc3)nc3ncccn23)c(C)c1 11.2 µM [activator, partial curve]
CCn1cc(CNC(=O)c2ccc(OC3CCN(Cc4ccccn4)CC3)cc2)cn1 14.1 µM [activator, single point]
Cc1cc(C)nc(SCc2ccc(C(=O)NNC(=O)Nc3cccc(Cl)c3)cc2)n1 35.5 µM [inhibitor, single point]
O=C(Nc1ccc(F)c(Cl)c1)c1nsc(Cl)c1Cl 12.6 µM [activator, partial curve, poor fit]
COc1cccc2c1C(=O)c1ccc3ccccc3c1C2=O 12.6 µM [inhibitor, single point]
Nc1c(C(=O)O)sc2nc(-c3ccccc3)c3c(c12)CCCC3 12.6 µM [inhibitor, single point]
NNC(=O)c1csc(-c2cccc(C(F)(F)F)c2)n1 22.4 µM [inhibitor, single point]
C/C(CC(=O)Nc1cccc(C(F)(F)F)c1)=N\NC(=O)Cc1ccccc1 35.5 µM [inhibitor, single point]
Cc1cc(C)cc(NS(=O)(=O)c2ccc(-c3cnc(C4CC4)o3)cc2)c1 35.5 µM [activator, single point]
CCCOc1ccc2c3c(c(=O)oc2c1OCCC)CCCC3 10 µM [activator, partial curve]
CCCCn1c(Cc2ccccc2)n[nH]c1=S 35.5 µM [inhibitor, single point]
O=C1/C(=C/c2cccc([N+](=O)[O-])c2)Oc2cc(O)ccc21 22.4 µM [activator, single point]
COc1ccc(OCCNS(=O)(=O)c2ccccc2)cc1 35.5 µM [activator, single point]
CCc1cccc(C)c1NC(=O)CSc1nc2ccc(N3C(=O)c4ccccc4C3=O)cc2s1 20 µM [inhibitor, single point]
c1ccc(Oc2nc(NC3CCCCC3)c3[nH]cnc3n2)cc1 22.4 µM [inhibitor, single point]
COc1cc(/C=C2\COC/C(=C\c3ccc(O)c(OC)c3)C2=O)ccc1O 22.4 µM [inhibitor, single point]
CCCCn1c(SCC(=O)c2ccccc2)nc2ccsc2c1=O 12.6 µM [activator, partial curve]
Cc1ccc(-n2nc3c(c2NC(=O)c2ccccc2)CS(=O)(=O)C3)cc1C 15.8 µM [activator, single point]
COc1ccc(NC(=O)N2CCC3(CC2)CCN(S(=O)(=O)c2ccccc2)CC3)cc1 35.5 µM [inhibitor, single point]
CCCCOC(=O)Nc1ccc(C(C)C)cc1 35.5 µM [activator, partial curve, poor fit]
COc1ccc(CC(=O)Nc2ccc(N3CCN(c4ccc(OC)cc4)CC3)c(C#N)c2)cc1 11.2 µM [activator, partial curve, poor fit]
COc1cccc(CNc2ccc([N+](=O)[O-])cc2Cl)c1O 11.2 µM [activator, partial curve]
C=CCC1(CC=C)CCCN1C(=O)C1CCC(=O)N(CCc2ccc(OC)cc2)C1 (stereo not drawn) 5.62 µM [activator, partial curve, poor fit]
Cc1nc(C)c(-c2csc(Nc3ccc(O)c(C(=O)O)c3)n2)s1 2.24 µM [activator, partial curve]
COCCNC(=O)/C(C#N)=C/c1c(F)cccc1Cl 22.4 µM [inhibitor, single point]
COc1cccc(/C=C(\C#N)c2nc3ccccc3[nH]2)c1OCC(=O)O 35.5 µM [activator, single point]
COc1ccc(C(=O)Nc2cccc3ccccc23)cc1 3.98 µM [inhibitor, single point]
CCCCCn1c(CN2CCN(Cc3ccccc3)CC2)nc2c1c(=O)n(C)c(=O)n2C 5.01 µM [activator, single point]
COc1cc(C2C(C#N)=C(N)N(Nc3ccccc3)C3=C2C(=O)CC(C)(C)C3)ccc1OCc1cccc(F)c1 (stereo not drawn) 14.1 µM [activator, single point]
O=C(/C=C/c1ccccc1)Nc1cc(S(=O)(=O)N2CCOCC2)ccc1N1CCCC1 2.51 µM [activator, full curve]
CCOC(=O)CC1=CC(C)(CC(=O)OCC)C(C#N)(C#N)C(N)=C1C#N (stereo not drawn) 8.91 µM [activator, partial curve, poor fit]
c1ccc(-n2cnnc2SCc2nc3ccccc3s2)cc1 22.4 µM [activator, single point]
CC(C)(C)c1ccc(C(=O)N2CCN(C(=O)c3ccco3)CC2)cc1 1.26 µM [activator, partial curve]
COc1ccc(-c2ccc(CCC(=O)O)o2)cc1 22.4 µM [inhibitor, single point]
COc1ccc(-n2c(=O)[nH]cc(C(=O)Nc3ccc4c(c3)OCCO4)c2=O)cc1 14.1 µM [activator, single point]

Copied from the listing (5 entries):
Potency, inconclusive:
COc1cc(C2C(C#N)=C(N)N(Nc3ccccc3)C3=C2C(=O)CC(C)(C)C3)ccc1OCc1cccc(F)c1 (stereo not drawn) 14.1 µM [activator, single point]
O=C(/C=C/c1ccccc1)Nc1cc(S(=O)(=O)N2CCOCC2)ccc1N1CCCC1 2.51 µM [activator, full curve]
CCOC(=O)CC1=CC(C)(CC(=O)OCC)C(C#N)(C#N)C(N)=C1C#N (stereo not drawn) 8.91 µM [activator, partial curve, poor fit]
c1ccc(-n2cnnc2SCc2nc3ccccc3s2)cc1 22.4 µM [activator, single point]
CC(C)(C)c1ccc(C(=O)N2CCN(C(=O)c3ccco3)CC2)cc1 1.26 µM [activator, partial curve]

Next part:

Potency, inactive:
CN(C)CCOC(c1ccc(Cl)cc1)c1ccccn1 (stereo not drawn)

Activity change, negative = inhibition, inactive:
CC(C)N(C(=O)Cn1cc(S(=O)(=O)CC(=O)Nc2ccccc2)c2ccccc21)C(C)C 26.8%
CCOCCCN(C)C1CCN(C(=O)c2oc3ccccc3c2NC(=O)Cc2ccc(F)cc2)CC1 -1.65%
CCCCSc1ccc2nc(-c3ccc(C#N)cc3)cn2c1 -3.34%
N#Cc1ccc2c(c1)nc1ccccn12 14.3%
COc1ccc(CCN2C(=NC(C)=O)SC3CS(=O)(=O)CC32)cc1OC (stereo not drawn) -13.6%
O=C(CSc1ccc(-c2cccnc2)nn1)c1ccc([N+](=O)[O-])cc1 0.74%
Cc1ccc(NC(NC(=O)Cc2ccccc2)C(Cl)(Cl)Cl)cc1 (stereo not drawn) 18.4%
CCC(CC)c1nnc(NC(=O)c2ccc(S(=O)(=O)N3CCc4ccccc4C3)cc2)s1 0.389%
COc1ccc(NC(=O)C2CCCN2S(=O)(=O)c2cccc3nsnc23)c(OC)c1 (stereo not drawn) -40.4%
CSc1nncn1/N=C/c1ccc([N+](=O)[O-])cc1 -13.7%
COc1cc2c(cc1OC)C1O[C@](CCCCN3C(=O)c4ccccc4C3=O)(C2)OC2=C1C(=O)CCC2 13.8% [at 10 µM]
COc1ccc(NC2=CC(=O)CC(C)(C)C2)cc1 1.2%
Cc1ccc(C2c3c(oc4cc(C)c(C)cc4c3=O)C(=O)N2CCCN2CCOCC2)cc1 (stereo not drawn) 9.07%
COc1ccc(-n2c(C)nc3sc4c(c3c2=O)CCC4)cc1 17.3%
COC(=O)Nc1nc(-c2ccccc2)c(C(=O)c2ccc(Cl)cc2)s1 -0.158%
O=C(CCc1nc2ccccc2[nH]1)N1CCc2ccccc2C1 2.61%
NC(=O)C1CCCN(S(=O)(=O)c2ccc(Br)cc2)C1 (stereo not drawn) -13.4%
